Measurements reported in paper PMC2633045.
These are yes or no findings as the source states them, for the method shown. For part of these data: Binding seen in cells or lysates may run through a third protein. Some entries that bind do so weakly or less than the wild type. Tags and fused reporters may be left off the sequences shown.

By UniProt entry, the sequences of proteins in these tests, tags left out.
UniProt P36152: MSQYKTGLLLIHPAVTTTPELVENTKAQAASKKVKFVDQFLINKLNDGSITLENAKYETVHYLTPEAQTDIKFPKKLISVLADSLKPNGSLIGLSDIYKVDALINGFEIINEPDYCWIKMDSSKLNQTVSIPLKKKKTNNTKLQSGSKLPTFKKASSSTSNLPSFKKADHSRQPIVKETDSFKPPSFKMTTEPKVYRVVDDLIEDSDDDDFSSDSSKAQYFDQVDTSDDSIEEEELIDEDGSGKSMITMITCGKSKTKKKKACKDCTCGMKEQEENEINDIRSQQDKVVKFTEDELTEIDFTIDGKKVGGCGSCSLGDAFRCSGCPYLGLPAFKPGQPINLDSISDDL
UniProt Q6FI81: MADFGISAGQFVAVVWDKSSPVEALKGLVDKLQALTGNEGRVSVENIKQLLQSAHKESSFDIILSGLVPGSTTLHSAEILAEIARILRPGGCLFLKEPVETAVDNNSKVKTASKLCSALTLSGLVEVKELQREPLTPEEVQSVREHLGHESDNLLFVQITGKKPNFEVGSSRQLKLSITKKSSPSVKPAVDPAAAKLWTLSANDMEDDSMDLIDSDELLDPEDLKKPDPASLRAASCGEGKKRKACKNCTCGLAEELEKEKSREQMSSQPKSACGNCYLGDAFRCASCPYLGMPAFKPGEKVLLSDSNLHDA

How the values were obtained:
[1] = biological target: T1, Tah18 fused to the Binding domain (pGilda) (yeast) (UniProt Q12181); experiment: two-hybrid; LexA-based two-hybrid (Clontech), strain EGY48[p8op-lacZ]; Tah18 on the Binding domain (pGilda), partner on the Activating domain (pB42); growth and blue colour on GR and GRLX media
T1 sequence: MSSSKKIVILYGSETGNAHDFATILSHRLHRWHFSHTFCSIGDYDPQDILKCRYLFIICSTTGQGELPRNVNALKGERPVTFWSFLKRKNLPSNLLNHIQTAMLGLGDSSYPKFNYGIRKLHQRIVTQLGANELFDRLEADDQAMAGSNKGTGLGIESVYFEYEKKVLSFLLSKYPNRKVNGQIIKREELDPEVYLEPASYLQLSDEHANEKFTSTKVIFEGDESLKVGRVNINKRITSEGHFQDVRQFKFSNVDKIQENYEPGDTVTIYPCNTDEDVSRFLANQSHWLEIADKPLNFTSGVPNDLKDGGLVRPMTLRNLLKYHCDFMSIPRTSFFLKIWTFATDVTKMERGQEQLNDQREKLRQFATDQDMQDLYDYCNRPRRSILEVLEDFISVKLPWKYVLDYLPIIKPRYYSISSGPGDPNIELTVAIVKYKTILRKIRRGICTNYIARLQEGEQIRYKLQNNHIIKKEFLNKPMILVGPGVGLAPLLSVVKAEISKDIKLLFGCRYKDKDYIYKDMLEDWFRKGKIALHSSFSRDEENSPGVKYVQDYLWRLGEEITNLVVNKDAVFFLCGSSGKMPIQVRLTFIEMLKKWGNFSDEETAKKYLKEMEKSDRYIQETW

[2] = biological target: Hemagglutinin-tagged Dre2 (HA-Dre2) (yeast) (UniProt P36152); experiment: co-IP; yeast lysate in co-IP buffer (50 mM HEPES-KOH pH 7.5, 140 mM NaCl, 1 mM EDTA, 1% Triton X-100, 0.1% Na-Deoxycholate); HA-coated agarose beads, 4°C for 4 hours; Western blot with anti-HA and anti-GFP

Dre2 fused to the Activating domain (pB42) (from UniProt P36152 1-348)
binding [1]: binds

Human Ciapin1 (Cytokine Induced Apoptosis Inhibitor 1) fused to the Activating domain (pB42) (from UniProt Q6FI81 1-312)
binding [1]: binds

B1: GFP-Tah18 (protein, UniProt Q12181 1-623)
chain: MSSSKKIVILYGSETGNAHDFATILSHRLHRWHFSHTFCSIGDYDPQDILKCRYLFIICSTTGQGELPRNVNALKGERPVTFWSFLKRKNLPSNLLNHIQTAMLGLGDSSYPKFNYGIRKLHQRIVTQLGANELFDRLEADDQAMAGSNKGTGLGIESVYFEYEKKVLSFLLSKYPNRKVNGQIIKREELDPEVYLEPASYLQLSDEHANEKFTSTKVIFEGDESLKVGRVNINKRITSEGHFQDVRQFKFSNVDKIQENYEPGDTVTIYPCNTDEDVSRFLANQSHWLEIADKPLNFTSGVPNDLKDGGLVRPMTLRNLLKYHCDFMSIPRTSFFLKIWTFATDVTKMERGQEQLNDQREKLRQFATDQDMQDLYDYCNRPRRSILEVLEDFISVKLPWKYVLDYLPIIKPRYYSISSGPGDPNIELTVAIVKYKTILRKIRRGICTNYIARLQEGEQIRYKLQNNHIIKKEFLNKPMILVGPGVGLAPLLSVVKAEISKDIKLLFGCRYKDKDYIYKDMLEDWFRKGKIALHSSFSRDEENSPGVKYVQDYLWRLGEEITNLVVNKDAVFFLCGSSGKMPIQVRLTFIEMLKKWGNFSDEETAKKYLKEMEKSDRYIQETW
binding [2]: binds
